From PMC5841321

T1: E3 ubiquitin-protein ligase Midline-1 (UniProt O15344)
T1 sequence: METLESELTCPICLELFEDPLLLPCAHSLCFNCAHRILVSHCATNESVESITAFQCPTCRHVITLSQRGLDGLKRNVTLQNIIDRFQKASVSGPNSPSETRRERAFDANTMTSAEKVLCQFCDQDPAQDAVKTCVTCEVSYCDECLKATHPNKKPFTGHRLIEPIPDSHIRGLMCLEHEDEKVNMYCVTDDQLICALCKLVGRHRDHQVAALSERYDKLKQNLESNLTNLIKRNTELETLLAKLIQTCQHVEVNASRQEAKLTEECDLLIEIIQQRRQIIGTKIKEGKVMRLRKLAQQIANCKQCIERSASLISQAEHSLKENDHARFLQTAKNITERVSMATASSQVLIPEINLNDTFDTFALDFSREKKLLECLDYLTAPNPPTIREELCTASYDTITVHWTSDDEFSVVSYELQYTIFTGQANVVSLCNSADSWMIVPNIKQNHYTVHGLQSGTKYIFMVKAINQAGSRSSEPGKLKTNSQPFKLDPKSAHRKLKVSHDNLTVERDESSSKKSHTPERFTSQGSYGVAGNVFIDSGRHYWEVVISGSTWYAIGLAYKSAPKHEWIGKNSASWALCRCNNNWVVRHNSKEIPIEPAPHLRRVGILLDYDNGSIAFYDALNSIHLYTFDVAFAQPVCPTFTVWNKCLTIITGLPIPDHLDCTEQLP

B1: ATP-binding cassette sub-family F member 2 (protein, UniProt Q9UG63 1-623)
chain: MPSDLAKKKAAKKKEAAKARQRPRKGHEENGDVVTEPQVAEKNEANGRETTEVDLLTKELEDFEMKKAAARAVTGVLASHPNSTDVHIINLSLTFHGQELLSDTKLELNSGRRYGLIGLNGIGKSMLLSAIGKREVPIPEHIDIYHLTREMPPSDKTPLHCVMEVDTERAMLEKEAERLAHEDAECEKLMELYERLEELDADKAEMRASRILHGLGFTPAMQRKKLKDFSGGWRMRVALARALFIRPFMLLLDEPTNHLDLDACVWLEEELKTFKRILVLVSHSQDFLNGVCTNIIHMHNKKLKYYTGNYDQYVKTRLELEENQMKRFHWEQDQIAHMKNYIARFGHGSAKLARQAQSKEKTLQKMMASGLTERVVSDKTLSFYFPPCGKIPPPVIMVQNVSFKYTKDGPCIYNNLEFGIDLDTRVALVGPNGAGKSTLLKLLTGELLPTDGMIRKHSHVKIGRYHQHLQEQLDLDLSPLEYMMKCYPEIKEKEEMRKIIGRYGLTGKQQVSPIRNLSDGQKCRVCLAWLAWQNPHMLFLDEPTNHLDIETIDALADAINEFEGGMMLVSHDFRLIQQVAQEIWVCEKQTITKWPGDILAYKEHLKSKLVDEEPQLTKRTHNV
B2: CLIP-associating protein 2 (protein, UniProt O75122 1-1294)
chain: MAMGDDKSFDDEESVDGNRPSSAASAFKVPAPKTSGNPANSARKPGSAGGPKVGGASKEGGAGAVDEDDFIKAFTDVPSIQIYSSRELEETLNKIREILSDDKHDWDQRANALKKIRSLLVAGAAQYDCFFQHLRLLDGALKLSAKDLRSQVVREACITVAHLSTVLGNKFDHGAEAIVPTLFNLVPNSAKVMATSGCAAIRFIIRHTHVPRLIPLITSNCTSKSVPVRRRSFEFLDLLLQEWQTHSLERHAAVLVETIKKGIHDADAEARVEARKTYMGLRNHFPGEAETLYNSLEPSYQKSLQTYLKSSGSVASLPQSDRSSSSSQESLNRPFSSKWSTANPSTVAGRVSAGSSKASSLPGSLQRSRSDIDVNAAAGAKAHHAAGQSVRSGRLGAGALNAGSYASLEDTSDKLDGTASEDGRVRAKLSAPLAGMGNAKADSRGRSRTKMVSQSQPGSRSGSPGRVLTTTALSTVSSGVQRVLVNSASAQKRSKIPRSQGCSREASPSRLSVARSSRIPRPSVSQGCSREASRESSRDTSPVRSFQPLASRHHSRSTGALYAPEVYGASGPGYGISQSSRLSSSVSAMRVLNTGSDVEEAVADALKKPARRRYESYGMHSDDDANSDASSACSERSYSSRNGSIPTYMRQTEDVAEVLNRCASSNWSERKEGLLGLQNLLKNQRTLSRVELKRLCEIFTRMFADPHGKRVFSMFLETLVDFIQVHKDDLQDWLFVLLTQLLKKMGADLLGSVQAKVQKALDVTRESFPNDLQFNILMRFTVDQTQTPSLKVKVAILKYIETLAKQMDPGDFINSSETRLAVSRVITWTTEPKSSDVRKAAQSVLISLFELNTPEFTMLLGALPKTFQDGATKLLHNHLRNTGNGTQSSMGSPLTRPTPRSPANWSSPLTSPTNTSQNTLSPSAFDYDTENMNSEDIYSSLRGVTEAIQNFSFRSQEDMNEPLKRDSKKDDGDSMCGGPGMSDPRAGGDATDSSQTALDNKASLLHSMPTHSSPRSRDYNPYNYSDSISPFNKSALKEAMFDDDADQFPDDLSLDHSDLVAELLKELSNHNERVEERKIALYELMKLTQEESFSVWDEHFKTILLLLLETLGDKEPTIRALALKVLREILRHQPARFKNYAELTVMKTLEAHKDPHKEVVRSAEEAASVLATSISPEQCIKVLCPIIQTADYPINLAAIKMQTKVIERVSKETLNLLLPEIMPGLIQGYDNSESSVRKACVFCLVAVHAVIGDELKPHLSQLTGSKMKLLNLYIKRAQTGSGGADPTTDVSGQS
B3: Coatomer subunit gamma-2 (protein, UniProt Q9UBF2 1-871)
chain: MIKKFDKKDEESGSGSNPFQHLEKSAVLQEARIFNETPINPRRCLHILTKILYLLNQGEHFGTTEATEAFFAMTRLFQSNDQTLRRMCYLTIKEMATISEDVIIVTSSLTKDMTGKEDVYRGPAIRALCRITDGTMLQAIERYMKQAIVDKVSSVSSSALVSSLHMMKISYDVVKRWINEAQEAASSDNIMVQYHALGVLYHLRKNDRLAVSKMLNKFTKSGLKSQFAYCMLIRIASRLLKETEDGHESPLFDFIESCLRNKHEMVIYEAASAIIHLPNCTARELAPAVSVLQLFCSSPKPALRYAAVRTLNKVAMKHPSAVTACNLDLENLITDSNRSIATLAITTLLKTGSESSVDRLMKQISSFVSEISDEFKVVVVQAISALCQKYPRKHSVMMTFLSNMLRDDGGFEYKRAIVDCIISIVEENPESKEAGLAHLCEFIEDCEHTVLATKILHLLGKEGPRTPVPSKYIRFIFNRVVLENEAVRAAAVSALAKFGAQNESLLPSILVLLQRCMMDTDDEVRDRATFYLNVLQQRQMALNATYIFNGLTVSVPGMEKALHQYTLEPSEKPFDMKSIPLAMAPVFEQKAEITLVATKPEKLAPSRQDIFQEQLAAIPEFLNIGPLFKSSEPVQLTEAETEYFVRCIKHMFTNHIVFQFDCTNTLNDQLLEKVTVQMEPSDSYEVLSCIPAPSLPYNQPGICYTLVRLPDDDPTAVAGSFSCTMKFTVRDCDPNTGVPDEDGYDDEYVLEDLEVTVSDHIQKVLKPNFAAAWEEVGDTFEKEETFALSSTKTLEEAVNNIITFLGMQPCERSDKVPENKNSHSLYLAGIFRGGYDLLVRSRLALADGVTMQVTVRSKERTPVDVILASVG
B4: Ribosome-binding protein 1 (protein, UniProt Q9P2E9 1-1410)
chain: MDIYDTQTLGVVVFGGFMVVSAIGIFLVSTFSMKETSYEEALANQRKEMAKTHHQKVEKKKKEKTVEKKGKTKKKEEKPNGKIPDHDPAPNVTVLLREPVRAPAVAVAPTPVQPPIIVAPVATVPAMPQEKLASSPKDKKKKEKKVAKVEPAVSSVVNSIQVLTSKAAILETAPKEVPMVVVPPVGAKGNTPATGTTQGKKAEGTQNQSKKAEGAPNQGRKAEGTPNQGKKTEGTPNQGKKAEGTPNQGKKAEGTPNQGKKAEGAQNQGKKVDTTPNQGKKVEGAPTQGRKAEGAQNQAKKVEGAQNQGKKAEGAQNQGKKGEGAQNQGKKAEGAQNQGKKAEGAQNQGKKAEGAQNQGKKAEGAQNQGKKAEGAQNQGKKAEGAQNQGKKVEGAQNQGKKAEGAQNQGKKAEGAQNQGKKAEGAQNQGKKAEGAQNQGKKAEGAQNQGKKAEGAQNQGKKAEGAQNQGKKVEGAQNQGKKAEGAQNQGKKAEGAQNQGKKAEGAQNQGQKGEGAQNQGKKTEGAQGKKAERSPNQGKKGEGAPIQGKKADSVANQGTKVEGITNQGKKAEGSPSEGKKAEGSPNQGKKADAAANQGKKTESASVQGRNTDVAQSPEAPKQEAPAKKKSGSKKKGEPGPPDADGPLYLPYKTLVSTVGSMVFNEGEAQRLIEILSEKAGIIQDTWHKATQKGDPVAILKRQLEEKEKLLATEQEDAAVAKSKLRELNKEMAAEKAKAAAGEAKVKKQLVAREQEITAVQARMQASYREHVKEVQQLQGKIRTLQEQLENGPNTQLARLQQENSILRDALNQATSQVESKQNAELAKLRQELSKVSKELVEKSEAVRQDEQQRKALEAKAAAFEKQVLQLQASHRESEEALQKRLDEVSRELCHTQSSHASLRADAEKAQEQQQQMAELHSKLQSSEAEVRSKCEELSGLHGQLQEARAENSQLTERIRSIEALLEAGQARDAQDVQASQAEADQQQTRLKELESQVSGLEKEAIELREAVEQQKVKNNDLREKNWKAMEALATAEQACKEKLLSLTQAKEESEKQLCLIEAQTMEALLALLPELSVLAQQNYTEWLQDLKEKGPTLLKHPPAPAEPSSDLASKLREAEETQSTLQAECDQYRSILAETEGMLRDLQKSVEEEEQVWRAKVGAAEEELQKSRVTVKHLEEIVEKLKGELESSDQVREHTSHLEAELEKHMAAASAECQNYAKEVAGLRQLLLESQSQLDAAKSEAQKQSDELALVRQQLSEMKSHVEDGDIAGAPASSPEAPPAEQDPVQLKTQLEWTEAILEDEQTQRQKLTAEFEEAQTSACRLQEELEKLRTAGPLESSETEEASQLKERLEKEKKLTSDLGRAATRLQELLKTTQEQLAREKDTVKKLQEQLEKAEDGSSSKEGTSV

target: T1, E3 ubiquitin-protein ligase Midline-1; test: affinity purification with mass spectrometry; MID1-FLAG expressed in HEK293T, lysate in TKM buffer (20 mM Tris pH 7.4, 100 mM KCl, 5 mM MgCl2, 0.5% NP40, 1 mM DTT), anti-FLAG M1 agarose overnight at 4 °C, 6 washes; untransfected cells as control; Q-Exactive, MaxQuant, 1% FDR

| Binder | binding |
| --- | --- |
| B1 | binds |
| B2 | binds |
| B3 | binds |
| B4 | binds |

No constants are given. Whether binding was seen depends on the method and setting. Binding seen in cells or lysates may run through a third protein. Here binding means that the protein was enriched with, or labelled near, the bait; the list need not be complete.
